Reference: PubChem BioAssay AID504774 (Drosophila RNAi Screening Center, 2011)

Purpose: 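Knock-downs that shift viability of MMS-exposed cells relative to untreated ones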 (primary screen)
System: Drosophila Kc167 cells
Knock-down reagent: long dsRNA against Drosophila genes, about 0.25 µg dsRNA per well
Timing: about 6 days: 3 days knock-down, then 3 days with or without MMS
Treatment: methyl methanesulphonate 0.004% (w/v) for 3 days after knock-down
Detection: 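Viability in wells given MMS, read as ATP luminescence, normalised by quantiles plate by plate and averaged across replicates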
Scale: mean viability with MMS and viability with MMS: higher = more surviving cells after MMS
In all, the deposit lists about 23,000 reagents; below is a random part of those that have a named target and a result. 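Values are quantile-normalised luminescence on an arbitrary scale; higher means more cells surviving MMS.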 A plus sign joins genes that one reagent is predicted to hit. Further read-outs or replicates are left out here. Reagent sequences are not shown.

For CG15800 (GeneID 37763) [DRSC04271], what was measured?
mean viability with MMS: 3.47e6; viability with MMS, replicate 1: 3.88e6

What is on record for SkpC (GeneID 32996) [DRSC20375]?
mean viability with MMS: 3.71e6; viability with MMS, replicate 1: 4.17e6

Which result is listed for Cp7Fa (GeneID 3885650) [DRSC18032]?
mean viability with MMS: 3.53e6; viability with MMS, replicate 1: 4.06e6

For Cp7Fa (GeneID 3885650) [DRSC18033], what does the deposit list?
mean viability with MMS: 3.40e6; viability with MMS, replicate 1: 3.86e6

What did the screen give for Sgs4 (GeneID 31304) [DRSC18715]?
mean viability with MMS: 3.70e6; viability with MMS, replicate 1: 4.08e6

What is on record for CG13564 (GeneID 37855) [DRSC04201]?
mean viability with MMS: 3.73e6; viability with MMS, replicate 1: 4.23e6

How did the screen score Or98b (GeneID 43375) [DRSC16775]?
mean viability with MMS: 3.61e6; viability with MMS, replicate 1: 3.98e6

For Or98b (GeneID 43375) [DRSC21751], what does the deposit list?
mean viability with MMS: 3.41e6; viability with MMS, replicate 1: 3.85e6

For CG42380 + CG42379 + PIG-M + 1 more [DRSC03884], how do the results read?
mean viability with MMS: 3.38e6; viability with MMS, replicate 1: 3.75e6

What did the screen give for CG42380 + CG42379 + PIG-M + 1 more [DRSC04580]?
mean viability with MMS: 3.41e6; viability with MMS, replicate 1: 3.77e6

With Kots (GeneID 41702) [DRSC16581], what does the deposit list?
mean viability with MMS: 3.72e6; viability with MMS, replicate 1: 4.21e6

3 entries from above, showing only “mean viability with MMS”:
CG15800 (GeneID 37763) [DRSC04271] = 3.47e6
SkpC (GeneID 32996) [DRSC20375] = 3.71e6
Cp7Fa (GeneID 3885650) [DRSC18032] = 3.53e6

The list goes on:
What did the screen give for Gapdh2 (GeneID 32545) [DRSC20246]?
mean viability with MMS: 3.48e6; viability with MMS, replicate 1: 3.97e6

What is on record for CG1344 (GeneID 35500) [DRSC04837]?
mean viability with MMS: 3.36e6; viability with MMS, replicate 1: 3.85e6

Which result is listed for CG9861 (GeneID 37692) [DRSC04576]?
mean viability with MMS: 3.69e6; viability with MMS, replicate 1: 4.30e6

What did the screen give for Dtwd2 (GeneID 40873) [DRSC12501]?
mean viability with MMS: 3.43e6; viability with MMS, replicate 1: 3.89e6

Which result is listed for Adh + Adhr [DRSC01862]?
mean viability with MMS: 3.50e6; viability with MMS, replicate 1: 3.83e6

Which result is listed for Adh + Adhr [DRSC01863]?
mean viability with MMS: 3.60e6; viability with MMS, replicate 1: 4.21e6

With PCNA2 (GeneID 35257) [DRSC02030], how do the results read?
mean viability with MMS: 3.55e6; viability with MMS, replicate 1: 3.99e6

For Dhod (GeneID 41022) [DRSC16647], what does the deposit list?
mean viability with MMS: 3.63e6; viability with MMS, replicate 1: 4.20e6

For Sid (GeneID 43390) [DRSC16588], what does the deposit list?
mean viability with MMS: 3.69e6; viability with MMS, replicate 1: 4.19e6

With CG11786 (GeneID 42998) [DRSC14389], what does the deposit list?
mean viability with MMS: 3.73e6; viability with MMS, replicate 1: 4.14e6

What did the screen give for CG8478 (GeneID 41194) [DRSC16427]?
mean viability with MMS: 3.59e6; viability with MMS, replicate 1: 4.00e6

Which result is listed for CG17129 (GeneID 38080) [DRSC08508]?
mean viability with MMS: 3.30e6; viability with MMS, replicate 1: 3.75e6

With CG9630 (GeneID 40974) [DRSC16527], what was measured?
mean viability with MMS: 3.62e6; viability with MMS, replicate 1: 4.18e6

For CG17896 (GeneID 30995) [DRSC18502], what was measured?
mean viability with MMS: 3.52e6; viability with MMS, replicate 1: 3.94e6

What is on record for tctn + B9d2 [DRSC03160]?
mean viability with MMS: 3.47e6; viability with MMS, replicate 1: 3.83e6

For Cht7 + tRNA:Cys-GCA-1-4 + tRNA:Lys-CTT-1-13 [DRSC08021], how do the results read?
mean viability with MMS: 3.37e6; viability with MMS, replicate 1: 3.89e6

What is on record for CG31321 (GeneID 318681) [DRSC13028]?
mean viability with MMS: 3.47e6; viability with MMS, replicate 1: 3.92e6

Which result is listed for Lcp9 (GeneID 37963) [DRSC04287]?
mean viability with MMS: 3.41e6; viability with MMS, replicate 1: 3.95e6

How did the screen score CG15580 (GeneID 40743) [DRSC12266]?
mean viability with MMS: 3.57e6; viability with MMS, replicate 1: 4.10e6

What is on record for Sfxn2 (GeneID 40080) [DRSC10718]?
mean viability with MMS: 3.58e6; viability with MMS, replicate 1: 4.15e6

How did the screen score CG8671 (GeneID 35400) [DRSC03102]?
mean viability with MMS: 3.50e6; viability with MMS, replicate 1: 3.99e6

Which result is listed for CG8671 (GeneID 35400) [DRSC03103]?
mean viability with MMS: 3.51e6; viability with MMS, replicate 1: 3.93e6

For Fatp3 (GeneID 37887) [DRSC04366], what does the deposit list?
mean viability with MMS: 3.59e6; viability with MMS, replicate 1: 3.96e6

For CG18788 (GeneID 59164) [DRSC02697], how do the results read?
mean viability with MMS: 3.54e6; viability with MMS, replicate 1: 4.04e6
